No constants are given. Whether binding was seen depends on the method and setting. Binding seen in cells or lysates may run through a third protein. Binding calls can cover weak binding; strength is not graded here.
Columns and labels:
[1] = biological target: GPX4 wild type, stably overexpressed in HepG2 cells (HepG2-GPX4); assay: proximity ligation; Duolink in situ PLA on fixed, permeabilised HCC cells or HepG2 cells stably expressing GPX4 WT or mutants; anti-p53 or anti-B55β with anti-GPX4; cells untreated or treated with Sora (10 µM, 24 h)
[2] = biological target: GPX4 wild type, stably overexpressed in HepG2 cells (HepG2-GPX4); assay: co-IP; IP from HepG2 cells stably expressing GPX4 WT, S2A, S40A, S45A or S112A; precipitating antibody not given

B1: protein phosphatase 2A-B55β subunit (PP2A-B55β), endogenous in HCC cells (protein, UniProt Q00005 1-443)
chain: MEEDIDTRKINNSFLRDHSYATEADIISTVEFNHTGELLATGDKGGRVVIFQREQESKNQVHRRGEYNVYSTFQSHEPEFDYLKSLEIEEKINKIRWLPQQNAAYFLLSTNDKTVKLWKVSERDKRPEGYNLKDEEGRLRDPATITTLRVPVLRPMDLMVEATPRRVFANAHTYHINSISVNSDYETYMSADDLRINLWNFEITNQSFNIVDIKPANMEELTEVITAAEFHPHHCNTFVYSSSKGTIRLCDMRASALCDRHTKFFEEPEDPSNRSFFSEIISSISDVKFSHSGRYIMTRDYLTVKVWDLNMENRPIETYQVHDYLRSKLCSLYENDCIFDKFECVWNGSDSVIMTGSYNNFFRMFDRNTKRDVTLEASRENSKPRAILKPRKVCVGGKRRKDEISVDSLDFSKKILHTAWHPSENIIAVAATNNLYIFQDKVN
Question: Which binding [1] does the source give for B1 here?
Answer: binds

Question: And the binding [2]?
Answer: binds

From article PMC10405852
